Assay [1] addresses PIAL2 harboring the SIM mutations, fused to GAL4-BD (Arabidopsis) (UniProt F4JYG0). Kind of assay: two-hybrid; GAL4-AD (pGADT7, AH109) and GAL4-BD (pGBKT7, Y187) fusions mated; growth on -Leu-Trp-His with 3 mM 3-amino-1,2,4-triazole.
Assay [2] concerns the target CMM2 domain of MOM1 fused to GAL4-BD (Arabidopsis). Described as above.

Protein sequences, listed by entry. Tags and fused reporters are not part of them. Lines headed by an entry give the natural chain unless they say otherwise; changes in a name come on top.
UniProt F4JYG0: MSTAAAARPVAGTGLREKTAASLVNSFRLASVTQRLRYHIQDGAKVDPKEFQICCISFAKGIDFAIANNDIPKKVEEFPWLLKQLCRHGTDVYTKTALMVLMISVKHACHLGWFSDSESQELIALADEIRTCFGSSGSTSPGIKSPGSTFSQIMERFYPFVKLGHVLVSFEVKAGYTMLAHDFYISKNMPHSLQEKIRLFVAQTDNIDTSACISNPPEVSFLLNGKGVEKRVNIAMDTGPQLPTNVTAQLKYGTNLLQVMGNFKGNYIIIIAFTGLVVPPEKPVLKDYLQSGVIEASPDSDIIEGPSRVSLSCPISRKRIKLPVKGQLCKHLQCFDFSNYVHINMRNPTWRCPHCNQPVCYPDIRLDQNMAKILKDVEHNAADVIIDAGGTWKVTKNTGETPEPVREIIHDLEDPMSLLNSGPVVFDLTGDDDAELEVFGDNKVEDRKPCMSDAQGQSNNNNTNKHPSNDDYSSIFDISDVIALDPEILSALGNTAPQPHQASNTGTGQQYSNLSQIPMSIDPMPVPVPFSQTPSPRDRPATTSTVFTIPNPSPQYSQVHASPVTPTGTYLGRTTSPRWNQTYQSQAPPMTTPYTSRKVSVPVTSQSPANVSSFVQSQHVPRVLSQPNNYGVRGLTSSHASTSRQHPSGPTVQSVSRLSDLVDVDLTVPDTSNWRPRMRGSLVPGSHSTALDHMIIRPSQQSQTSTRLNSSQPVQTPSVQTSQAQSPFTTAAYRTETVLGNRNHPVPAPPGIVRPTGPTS
UniProt Q9FLP6: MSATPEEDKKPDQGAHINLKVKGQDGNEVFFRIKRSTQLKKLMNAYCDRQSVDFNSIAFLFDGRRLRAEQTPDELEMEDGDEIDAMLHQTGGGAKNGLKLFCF

Numbering of substitutions follows the chain as printed. In names and notes the source's numbering stands. Results are given in words; binding and its absence hold for the method and conditions named. A result given as binding can be weak or reduced; the word gives no strength. For some assays here: Sequences can lack the tags named with a protein.

For the molecule “Full-length MOM1 fused to GAL4-AD (from UniProt Q9M658 1-2001)”, the binding result in assay [1] is given as “binds”.
Same read-out and setting: with “SUMO2 as tested against GAL4-BD-PIAL2 with the SIM mutations (S4C Fig) (from UniProt Q9FLP6 1-103)” the entry was “no binding”.

B1: MOM1-P3 fused to GAL4-AD (domain or fragment, UniProt Q9M658 1660-2001)
chain: TSVAEPHISGSDACEMEISEPGPQVERSTFANLFHEGGVEHSAGVTALVPSLLNNGTEQIAVQPVPQIPFPVFNDPFLHELEKLRRESENSKKTFEEKKSILKAELERKMAEVQAEFRRKFHEVEAEHNTRTTKIEKDKNLVIMNKLLANAFLSKCTDKKVSPSGAPRGKIQQLAQRAAQVSALRNYIAPQQLQASSFPAPALVSAPLQLQQSSFPAPGPAPLQPQASSFPSSVSRPSALLLNFAVCPMPQPRQPLISNIAPTPSVTPATNPGLRSPAPHLNSYRPSSSTPVATATPTSSVPPQALTYSAVSIQQQQEQQPQQSLSSGLQSNNEVVCLSDDE
In the case of B1, the binding result in assay [2] was “binds”.

B2: MOM1-P3 harboring CMM3-M2 (V1994A/V1995A/C1996A/L1997A/S1998A), fused to GAL4-AD (domain or fragment, UniProt Q9M658 1660-2001)
chain: B1 chain with V335A, V336A, C337A, L338A, S339A
In the case of B2, the binding entry in assay [2] is listed as “binds”.

B3: MOM1-P3 harboring CMM3-M1 (V1994A/V1995A), fused to GAL4-AD (domain or fragment, UniProt Q9M658 1660-2001)
chain: B1 chain with V335A, V336A
As for B3, in assay [2], the binding result is reported as “binds”.

The record behind these values is paper PMC6084981.
